Percent effect of library compounds

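Growth of Mycobacterium tuberculosis over 3 days (7H9 medium with glucose and tyloxapol); the read-out is not stated. Concentration: 50 µM. The record gives no direction; compounds that gave an IC50 in retests scored well above the rest, so higher reads as more growth inhibition. Size under these conditions: about 69,000 compounds, about 760 of them at 50% or above in at least one test.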

Results are given as percent effect.
The controls that fix the scale are not given in the record; negative values are as filed.
Compounds were drawn at random from those tested, without regard to their results.
Two or more numbers in one place are separate tests of the same structure; such repeats can differ widely.

compound: CC(=O)N[C@@H]1CN(C(=O)c2ccc[nH]2)C[C@H]1c1ccc(C)o1
percent effect: -12.26

compound: Cc1ccc(CNC2CCc3nc(C(C)C)nn3C2)o1 (stereo not drawn)
percent effect: -5.992

compound: Cc1ccc(C)c(C(NC(=O)C2CC2)c2cccnc2)c1 (stereo not drawn)
percent effect: 17.5

compound: [H][C@@]12CN(C(=O)c3ccco3)C[C@]1([H])C(=O)N(Cc1cccc(C)c1)C2
percent effect: 8.532 and -0.9573

compound: O=C(NCc1cccc(N2CCCCC2=O)c1)[C@@H](O)c1ccccc1
percent effect: 12.21

compound: CCCC(=O)N1CCC(O)(Cn2c(CC)nc3ccccc3c2=O)CC1.Cl
percent effect: 26.05

compound: CC(C)C1=NOC2(CCN(Cc3c[nH]c4ccccc34)CC2)C1
percent effect: -25.42

compound: CCC(CC)NC(=O)c1cccnc1-n1cccn1
percent effect: -5.95 and 0.1435

compound: CC(NCc1c(C(C)C)nn(C)c1N1CCOCC1)C(N)=O (stereo not drawn)
percent effect: -38.99

compound: Cc1ccc(F)c(OC2(C(=O)O)CCN(C(=O)c3ccncc3)CC2)c1
percent effect: 0.09791

compound: CC(=O)c1cccc(NC(=O)Cn2cnc(-c3cccs3)cc2=O)c1
percent effect: 8.442 and 3.974

compound: CCOC(C)c1nccn1Cc1noc(CC)n1 (stereo not drawn)
percent effect: -10.16 and -3.096

compound: COC(=O)CNC(=O)c1cccc(C(=O)N(C)c2ccccc2)c1
percent effect: -6.628 and 8.151

compound: O=C(NCc1ccccc1)N1CCC2(CC(=O)N(c3ccccc3)C2)C1 (stereo not drawn)
percent effect: -11.29

compound: CCn1nccc1CN(C)c1[nH]cnc2nc(C)nc1-2
percent effect: 16.16

compound: CC(C)c1noc(CCC(=O)Nc2cc(F)ccc2F)n1
percent effect: -8.887

compound: Cc1c[nH]c(C2CCCN(Cc3ccccc3C(=O)O)C2)n1.O=CO (stereo not drawn)
percent effect: -6.706

compound: CCOC1COC2(CCN(S(=O)(=O)c3cccc(F)c3)CC2)C1 (stereo not drawn)
percent effect: 4.735

compound: CCn1nnc2c1C(COC)CN(Cc1cccs1)C2.O=C(O)C(F)(F)F (stereo not drawn)
percent effect: 12.6

compound: CCSCc1nc(O)c2nnn(C3CCN(Cc4ccco4)CC3)c2n1
percent effect: 6.804

compound: CNC(=O)CNC1CC2(CCN(c3ncccn3)CC2)c2ccccc21.O=C(O)C(F)(F)F.O=C(O)C(F)(F)F (stereo not drawn)
percent effect: 17.2 and -5.165

compound: CC(=O)N1CCN([C@@H]2CC[C@@H](N(C)C(=O)C3CCCCC3)[C@H]2O)CC1
percent effect: 10.91

compound: Nc1nccc(C2CCN(CC3CC3)C2)n1 (stereo not drawn)
percent effect: -36.18

compound: CC1CN(C(=O)c2ccnc(OCCN(C)C)c2)c2ccccc21 (stereo not drawn)
percent effect: -12.3 and 10.29

compound: COCCC1COC2(CCN(C(=O)c3ccncc3)CC2)C1.O=C(O)C(F)(F)F (stereo not drawn)
percent effect: -23.6

compound: O=C(NCC(F)(F)C(F)F)c1ccncc1
percent effect: -1.649

compound: CN(CC1CC1)C(=O)Cc1csc(-c2ncccn2)n1
percent effect: -24.46

compound: CC(Nc1ncnc2c1CCNC2)c1ccc2c(c1)CCCC2 (stereo not drawn)
percent effect: 44.96

compound: CC(C)n1cnc2c(N3CCCC3)nc(C3CCNCC3)cc21.Cl.Cl
percent effect: 2.462 and 1.499

compound: Br.COc1ccc(C(=O)CN(C2=NCCCCC2)c2ccccc2)cc1
percent effect: 35.55

compound: Cc1cnn(CC2CN(CC(=O)N(C)Cc3cccs3)CCO2)c1 (stereo not drawn)
percent effect: -31.6

compound: CN(Cc1noc2c1CCCC2)C(=O)C1Cc2ccccc2CN1C (stereo not drawn)
percent effect: -2.287 and -34.28

compound: N#Cc1cccc(NC(=O)N[C@H](CO)c2ccccc2)c1
percent effect: -6.339

compound: O=C(Nc1ccc(CCN2CCOCC2)cc1)C1CC1
percent effect: -22.01

compound: O=C([C@H]1CCCO1)N1CCc2ncc(CN3CCOCC3)n2CC1
percent effect: 8.907

compound: Cc1nc2n(n1)CC(Nc1nc(-c3ccccc3)no1)CC2 (stereo not drawn)
percent effect: 23.48

compound: COC(=O)[C@H](C)NC(=O)Cc1c(C)nc2cc(=O)[nH]n2c1C
percent effect: -26.98

compound: [H][C@@]12CNC[C@]1([H])[C@H]2C(=O)N1CCC(Sc2ccccc2C)CC1
percent effect: -5.477

compound: COc1cccc(OCC2CCCN(C(=O)Cc3cccc(O)c3)C2)c1 (stereo not drawn)
percent effect: -3.157

compound: COC(=O)c1ccc(NC(=O)NC2CCc3[nH]ncc3C2)cc1 (stereo not drawn)
percent effect: -1.922

compound: CC(C)C(=O)N(C)Cc1nnc2n1CCCCC2
percent effect: -28.34

compound: Cc1nn(C)c2ncnc(NCC(O)CN3CCCCC3)c12 (stereo not drawn)
percent effect: -52.62

compound: CC(=O)Nc1ccc(Cl)c(C(=O)N(C)Cc2nc(C)c[nH]2)c1
percent effect: -16.83

compound: CCc1ccc(C2CCCN2C(=O)Cc2ccc(NC(C)=O)cc2)o1 (stereo not drawn)
percent effect: 2.199 and -9.589

compound: Cn1cc(CN2CCCC3(COCCN(Cc4c[nH]nn4)C3)C2)cn1.O=C(O)C(F)(F)F.O=C(O)C(F)(F)F (stereo not drawn)
percent effect: -36.34 and -8.944

compound: Cc1nc(C2CCCN2C(=O)CCCn2cncn2)no1 (stereo not drawn)
percent effect: -25.6

compound: COc1cccc(-c2n[nH]cc2-c2nc(CN3CCCC3)no2)c1
percent effect: 33.07 and 19.81

compound: COc1cc(C)c(C(C)Nc2ncc(C(N)=O)cc2Cl)cc1OC (stereo not drawn)
percent effect: -11.4

compound: COCC(O)CN1CCC(NC(=O)c2ccccc2Cl)CC1 (stereo not drawn)
percent effect: 21.88

compound: O=C(c1ccc(NC2CC2)nc1)N1CCC(Nc2cccnn2)CC1
percent effect: 3.813

compound: Cc1c[nH]c(CN2CCC3(CCCN(Cc4ccc(F)c(F)c4)C3)C2)n1 (stereo not drawn)
percent effect: 51.36

compound: CN(C)c1ccc(NC(=O)N2CCCCC2c2ncc[nH]2)cn1 (stereo not drawn)
percent effect: -21.91

compound: CC(C)=CCN1CCC2(CC1)c1ccccc1[C@@H](N1CCSCC1)[C@@H]2O
percent effect: -7.289

compound: CCCC(C)C(=O)Nc1ccc(OC)nc1N1CCN(C(C)=O)CC1 (stereo not drawn)
percent effect: -23.48 and -3.512

compound: Cc1nn(C)c2nc(N(CCN(C)C)CC3CCCO3)sc12 (stereo not drawn)
percent effect: -21.99

compound: CN(C)C(=O)N1CCC(C(=O)N2CCOC(CC3CCCCC3)C2)CC1 (stereo not drawn)
percent effect: 28.08

compound: O=C(C1CCOCC1)N1CCC2(CCN(Cc3nccs3)CC2)CC1.O=C(O)C(F)(F)F
percent effect: -14.87

compound: O=C(O)C(F)(F)F.[H][C@]12CCC[C@@]1(COCc1cccnc1)CN(C(=O)c1ccn(C)n1)C2
percent effect: -0.3334

For reference, 4 entries once more:

{"compound": "O=C(NCc1ccccc1)N1CCC2(CC(=O)N(c3ccccc3)C2)C1", "stereo": "stereo not drawn", "percent effect": -11.29}
{"compound": "CN(CC1CC1)C(=O)Cc1csc(-c2ncccn2)n1", "percent effect": -24.46}
{"compound": "CC(=O)N1CCN([C@@H]2CC[C@@H](N(C)C(=O)C3CCCCC3)[C@H]2O)CC1", "percent effect": 10.91}
{"compound": "CC(=O)Nc1ccc(Cl)c(C(=O)N(C)Cc2nc(C)c[nH]2)c1", "percent effect": -16.83}

Measurements from “University of Dundee, Small-Polar-MMV Screening Library” (2021), ChEMBL document CHEMBL3988442.